Data as given in patent US11325893B2, “Hydrofluoroethers and methods of using same” (3M INNOVATIVE PROPERTIES COMPANY, priority 2018, dated 2022).

Tests used:
[1] = Global Warming Potential (GWP) by three-part IPCC AR5 method; settings: 100 yr time horizon, relative to CO2; from measured radiative efficiency and atmospheric lifetime
[2] = Atmospheric lifetime from relative rate studies with hydroxyl radicals, chloromethane as reference compound; assay type: physicochemical; settings: reaction with hydroxyl radicals in laboratory chamber, CH3Cl reference, FTIR quantification

Compound | GWP, 100 yr [1] | Atmospheric Lifetime [2] [yr]
COC(F)(C(F)(F)C(F)(F)F)C(F)(C(F)(F)F)C(F)(F)F (centres unmarked) [CE1, NOVEC 7300] | 200 | 3.8
FC(F)(F)C(F)(F)C1(F)OCCC1(C(F)(F)F)C(F)(F)F (centres unmarked) [Example 1, 2-fluoro-2-(1,1,2,2,2-pentafluoroethyl)-3,3-bis(trifluoromethyl)tetrahydrofuran] | 17 | 0.37
FC(F)(F)C(F)(F)C(F)(F)C1(C(F)(F)F)CCOC1(F)C(F)(C(F)(F)F)C(F)(F)F (centres unmarked) [Example 2, 2-fluoro-3-(1,1,2,2,3,3,3-heptafluoropropyl)-2-[1,2,2,2-tetrafluoro-1-(trifluoromethyl)ethyl]-3-(trifluoromethyl)tetrahydrofuran] | 11 | 0.1
NOVEC 7700 [Comparative Example CE2] | 436 | 5.6
